Consider four sequences from article doi:10.1101/2020.02.03.932962.

By UniProt entry, the sequences of proteins in these tests, tags left out. Residues count along the entry.
UniProt O95863, 151-264: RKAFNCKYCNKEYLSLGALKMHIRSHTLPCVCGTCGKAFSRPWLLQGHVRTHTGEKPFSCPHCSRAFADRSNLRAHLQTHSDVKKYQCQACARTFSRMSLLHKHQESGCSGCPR

The target in one data set is Snail/ZF1-4 (His) (UniProt O95863). As to the kind of experiment: EMSA. On the technique in general: In EMSA bound probe runs differently from free probe, usually more slowly.
The subject of data set [1] is Twist/bHLH+WR (His, co-expressed with E47/bHLH) + E47/bHLH. The data set can be described thus: EMSA.
In the next data set the target is T1, Sox9/DIM+HMG (His) (UniProt P48436).
T1 sequence (looked up, limits assumed): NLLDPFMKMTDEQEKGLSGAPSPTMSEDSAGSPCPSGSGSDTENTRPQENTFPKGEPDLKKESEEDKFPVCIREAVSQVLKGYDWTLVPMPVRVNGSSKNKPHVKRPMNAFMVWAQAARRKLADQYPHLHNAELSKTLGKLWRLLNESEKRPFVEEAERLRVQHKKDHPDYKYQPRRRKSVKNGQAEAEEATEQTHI
As to the kind of experiment: EMSA.

Data set [2] has as its system Twist (endogenous, SUM1315) + Snail (endogenous, SUM1315) + Sox9 (endogenous, SUM1315). As to the kind of experiment: biotin-DNA pull-down, western blot. The note with it: SUM1315 nuclear extract; 5' biotin; protein in an extract.
In data set [3] the test system is Twist/bHLHdeltaWR (His) + E47/bHLH. As to the kind of experiment: EMSA.

Read-outs that look alike come from different tables or passages of the source. The exact form of at least one protein or probe is not confirmed. For some of these results: Negatives hold for the conditions tested. For some of these results: At least one verdict was read from the data and is not stated in words by the source. For some of these results: Tags and fusion partners may be left off the protein sequences shown. For some of these results: The comparison behind a weaker result is the experiment's own reference, which may not be listed here. For some of these results: At least one result comes from cells or an extract, where the contact may be indirect. For some of these results: Whether high values mean tight binding is not given here for every scale.

As for “CCAGGACAATGCCGCCATTGTCCTGG (double strand) [Sox9 dimer consensus]”, the values for the binding result (in the data set with Snail/ZF1-4 (His) (not appreciably bound); in data set [1] (not appreciably bound); with Sox9/DIM+HMG (His) (robust)) were “no binding”, “no binding” and “binds”, respectively.

On to “GCTCAGATGGAAGCCATGTGTGC (double strand) [A2M dyad E-box, biotinylated]”, for which, in data set [2], the binding result is reported as “binds”.

For the sequence “GCTCAGATGGAAGCCATGTGTGC (double strand) [A2M dyad E-box]”, the binding result in data set [3] (higher-order complex lost without WR) was “binds more weakly”; in data set [3] (with Snail/ZF1-4 and Sox9/DIM+HMG, higher-order complex partly recovered) it was “binds”; in data set [1] it was “binds”; in data set [1] (with Snail/ZF1-4 and Sox9/DIM+HMG, slower (tetramer) band increased), “binds”; with Sox9/DIM+HMG (His), “no binding”. Further, in the data set with Snail/ZF1-4 (His) (text compares with its canonical site, also stated as not binding), the binding signal (fold less apparent affinity) turned out to be 100.

For the sequence “GTGGCCGGCAGGTGAACCCTCA (double strand) [E-cad E-box]”, the binding result was “binds” with Snail/ZF1-4 (His), “binds more weakly” in data set [1] (bound very poorly) and “no binding” in the data set with Sox9/DIM+HMG (His).
